# Assay results from article PMC5287475.
# Protein sequences, listed by entry. Tags and fused reporters are not part of them.
# UniProt P25440: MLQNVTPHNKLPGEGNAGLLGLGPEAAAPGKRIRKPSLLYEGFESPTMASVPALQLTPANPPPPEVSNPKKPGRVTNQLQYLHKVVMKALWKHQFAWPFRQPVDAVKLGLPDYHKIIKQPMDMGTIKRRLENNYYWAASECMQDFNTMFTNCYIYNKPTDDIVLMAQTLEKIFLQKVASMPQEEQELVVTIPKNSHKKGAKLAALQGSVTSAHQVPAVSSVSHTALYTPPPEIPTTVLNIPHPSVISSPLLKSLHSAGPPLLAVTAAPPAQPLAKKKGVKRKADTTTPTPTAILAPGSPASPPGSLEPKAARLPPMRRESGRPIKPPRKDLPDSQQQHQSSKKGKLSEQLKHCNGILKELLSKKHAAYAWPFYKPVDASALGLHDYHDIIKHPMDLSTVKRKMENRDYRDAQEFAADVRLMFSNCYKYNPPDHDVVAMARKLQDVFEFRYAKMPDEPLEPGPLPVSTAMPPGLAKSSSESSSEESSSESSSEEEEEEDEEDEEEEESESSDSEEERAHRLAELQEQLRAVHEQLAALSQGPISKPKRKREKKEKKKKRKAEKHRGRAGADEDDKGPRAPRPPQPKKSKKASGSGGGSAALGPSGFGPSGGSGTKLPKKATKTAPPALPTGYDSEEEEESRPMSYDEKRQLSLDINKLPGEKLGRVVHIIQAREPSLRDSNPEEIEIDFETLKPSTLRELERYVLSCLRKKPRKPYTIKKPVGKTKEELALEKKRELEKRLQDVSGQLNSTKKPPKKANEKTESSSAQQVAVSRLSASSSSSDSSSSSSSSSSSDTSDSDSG
# These are yes or no findings as the source states them, for the method shown. Binding seen in cells or lysates may run through a third protein.
# B1: cohesin subunit RAD21 (endogenous) (protein, UniProt O60216 1-631)
# chain: MFYAHFVLSKRGPLAKIWLAAHWDKKLTKAHVFECNLESSVESIISPKVKMALRTSGHLLLGVVRIYHRKAKYLLADCNEAFIKIKMAFRPGVVDLPEENREAAYNAITLPEEFHDFDQPLPDLDDIDVAQQFSLNQSRVEEITMREEVGNISILQENDFGDFGMDDREIMREGSAFEDDDMLVSTTTSNLLLESEQSTSNLNEKINHLEYEDQYKDDNFGEGNDGGILDDKLISNNDGGIFDDPPALSEAGVMLPEQPAHDDMDEDDNVSMGGPDSPDSVDPVEPMPTMTDQTTLVPNEEEAFALEPIDITVKETKAKRKRKLIVDSVKELDSKTIRAQLSDYSDIVTTLDLAPPTKKLMMWKETGGVEKLFSLPAQPLWNNRLLKLFTRCLTPLVPEDLRKRRKGGEADNLDEFLKEFENPEVPREDQQQQHQQRDVIDEPIIEEPSRLQESVMEASRTNIDESAMPPPPPQGVKRKAGQIDPEPVMPPQQVEQMEIPPVELPPEEPPNICQLIPELELLPEKEKEKEKEKEDDEEEEDEDASGGDQDQEERRWNKRTQQMLHGLQRALAKTGAESISLLELCRNTNRKQAAAKFYSFLVLKKQQAIELTQEEPYSDIIATPGPRFHII
# Target: BRD2 (endogenous) (human (endogenous in BCBL1)) (UniProt P25440)
# Assay: co-IP; endogenous proteins of BCBL1 cells treated with DMSO or JQ1 for 1 hr; IP with antibody to RAD21, BRD2, BRD4 or IgG; Western blot for RAD21, BRD4, BRD2, SMC1 or LANA
binder,measurement,value
B1,binding,no binding
